# PubChem BioAssay AID504791 – Drosophila RNAi Screening Center | 2011
# Test: 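Genes of the fly required for silencing by miRNA, siRNA or endo-siRNA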 (primary screen)
# Cells: Drosophila S2-derived reporter cells
# Reagent: long dsRNA against Drosophila genes, about 150-250 ng dsRNA per well (siRNA assay); about 80-120 ng (miRNA assay)
# Timing: about 5 days (siRNA assay); about 4 days (miRNA assay)
# Challenge: copper sulfate induction of reporters: 25 µM (siRNA assay); 200 mM stated (miRNA assay), 1-2 days before reading
# Detection: 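Dual luciferase assay: Renilla to firefly signal ratio in each well, scaled to the mean ratio of its plate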
# Active means: 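First-pass picks had plate-scaled ratios over 1.5 for the siRNA assay, over 1.6 for the miRNA assay, or under 0.6; two distinct dsRNAs had to score alike on retest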
# The screen tested about 23,000 reagents; shown is an unselected part of those that have a named target and a result. Over the whole deposit, 199 (0.86%) got an active call. 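Plate-scaled ratios behind the calls are not deposited; printed light signals are raw; many rows marked increased or decreased are still called inactive.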 Names joined by + are all predicted targets of the reagent. The record does not give: the direction of the score.
gene,DRSC id,stable siRNA reporter change,miRNA reporter change,"stable assay Renilla, run 1 (luminescence)","stable assay firefly, run 1 (luminescence)",call
CG6195,DRSC15989,,,7926,3.49e5,inactive
ATPsynbeta,DRSC17194,,,3195,1.83e5,inactive
CG14221,DRSC19578,,,5111,3.18e5,inactive
Hsp60C,DRSC03036,,,8618,6.51e5,inactive
SrpRalpha,DRSC20251,,,8474,6.44e5,inactive
CG33704,DRSC03838,,,5951,4.04e5,inactive
CG8563,DRSC10996,,,6135,3.31e5,inactive
CG12746,DRSC12218,,,7831,4.52e5,inactive
rtv,DRSC19541,,,7916,3.86e5,inactive
4E-T,DRSC17201,,,7323,4.44e5,inactive
4E-T,DRSC17208,,,5502,4.27e5,inactive
CG3649,DRSC04400,,,5288,3.60e5,inactive
spdo,DRSC13988,,,8819,4.13e5,inactive
phtm,DRSC20237,,,6255,4.98e5,inactive
CG8135 + BBIP1,DRSC12739,,,5388,4.09e5,inactive
CG8135 + BBIP1,DRSC16384,,,6651,3.75e5,inactive
His2B:CG33894 + His2B:CG33872 + His2B:CG33902 + 20 more,DRSC21265,,reporter ratio raised past the hit cutoff,5196,4.19e5,inactive
Kr,DRSC04622,,,7403,5.43e5,inactive
Cyp9b1,DRSC07389,,,6663,3.87e5,inactive
CG18428,DRSC15326,,,7854,4.54e5,inactive
side-IV,DRSC14833,,,6703,3.26e5,inactive
bero,DRSC03211,,,7170,4.34e5,inactive
EMC8-9,DRSC04380,,,18723,5.23e5,inactive
CG13699,DRSC10048,,,7418,3.98e5,inactive
hop,DRSC20340,,,5614,5.94e5,inactive
hop,DRSC23334,,,4683,3.10e5,inactive
CG7239,DRSC03038,,,13720,1.39e5,inactive
CG7239,DRSC23113,,,4660,3.61e5,inactive
RabGGTa,DRSC12189,,,7750,4.76e5,inactive
ppk22,DRSC22093,,,10149,5.86e5,inactive
Ttc26,DRSC15591,reporter ratio raised past the hit cutoff,,6855,4.17e5,inactive
CG32318 + Klp61F + Psf1,DRSC23255,,,5988,4.06e5,inactive
CG7900,DRSC16336,,,4003,3.35e5,inactive
CG7900,DRSC21343,,,10119,5.74e5,inactive
Schip1,DRSC02851,,,7360,4.10e5,inactive
Zyx,DRSC17186,,,5907,3.10e5,inactive
Rbcn-3B,DRSC18574,,,6432,3.25e5,inactive
CG31832,DRSC22067,,,8318,4.57e5,inactive
roq,DRSC10227,,,8700,2.58e5,inactive
CG7747,DRSC07038,,,8135,2.93e5,inactive
simj,DRSC10942,,,6115,3.80e5,inactive
S6k,DRSC11276,,,5459,3.92e5,inactive
CG14626,DRSC18631,,,6407,3.74e5,inactive
CG13589,DRSC04225,,,6494,4.23e5,inactive
TAF1C-like,DRSC04073,,,21064,6.24e5,inactive
CG7997,DRSC07052,,,11486,3.63e5,inactive
peg,DRSC15216,,,8038,3.35e5,inactive
SCOT,DRSC08186,,,8890,3.06e5,inactive
dor,DRSC18765,,,6991,4.48e5,inactive
CG12971,DRSC11681,,,7147,3.39e5,inactive
CG13059,DRSC09942,,,7994,4.41e5,inactive
dlg1,DRSC18895,,,4252,3.82e5,inactive
dlg1,DRSC18896,,,5139,5.08e5,inactive
dlg1,DRSC19767,,,4447,4.64e5,inactive
dlg1,DRSC20324,,,7275,4.26e5,inactive
CG15579,DRSC18067,,,6716,4.42e5,inactive
Grl62c,DRSC07964,,,4911,3.34e5,inactive
